# Experimental data published in patent US20040198653A1, “Pharmaceutical compositions which inhibit proliferation of pituitary adenomas and method of use thereof” (priority 2001, published 2004).
# At least one structure is not confirmed: it was looked up by name or label, or the drawing left a doubt.
# Test system: pituitary adenoma cells
# Experiment: DNA synthesis: [3H]thymidine incorporation in pituitary adenoma cells
# Type: cell-based
# Details: 10^-9 M, 48 h incubation, medium with 10% FBS, pituitary cells from functioning adenomas
# Protocol: The effects of SSTR selective agonists and antagonists on pituitary adenoma cell DNA synthesis were assessed by determining the rate of [^3H]thymidine incorporation, as previously described (Davis L, et al., 1994 In: Basic methods in Molecular Biology, 2nd edition, Appleton & Lange, Norwalk, Conn., USA: 611-646, degli Uberti E C, et al., 1991 J Clin Endocrinol Metab 72: 1364-1371).
# Approximately 10^5 pituitary cells from two functioning adenomas were plated in quadruplicate wells the day of surgery and treated the day after with SRIF and with Compounds 1, 2, 3, and LANREOTIDE at 10^−9M. After 48 h incubation in a medium supplemented with 10% FBS in the presence of [^3H]thy (1.5 μCi/mL; 87 Ci/mmol) with or without each SRIF analogue. Treatments were renewed by adding fresh analogues to the wells after the first 24 h of incubation, without removing the medium.
# After incubation, the cells were washed three times with ice-cold PBS and twice with 10% ice-cold trichloroacetic acid (TCA). TCA-precipitated material was solubilized in 500 μL 0.2 mol/L sodium hydroxide and 0.1% SDS. Cell-associated radioactivity was then counted in a scintillation spectrometer. Results (counts per min per well) were obtained by determining the mean value of at least six experiments in quadruplicate. The viability of cells in control and treated cultures was evaluated by Trypan blue staining.
compound,measurement,value
"C[C@H](N)C(=O)NCC(=O)N[C@H]1CSSC[C@@H](C(=O)O)NC(=O)[C@H](CO)NC(=O)[C@H]([C@@H](C)O)NC(=O)[C@H](Cc2ccccc2)NC(=O)[C@H]([C@@H](C)O)NC(=O)[C@H](CCCCN)NC(=O)[C@H](Cc2c[nH]c3ccccc23)NC(=O)[C@H](Cc2ccccc2)NC(=O)[C@H](Cc2ccccc2)NC(=O)[C@H](CC(N)=O)NC(=O)[C@H](CCCCN)NC1=O [SRIF, reference compound]",% Reduction [3H]Thymidine,10. %
